Laboratory results published in article PMC11827603.
These are yes or no findings as the source states them, for the method shown. In cells and extracts the contact can be indirect. These calls come from enrichment with a bait or labelling near it, and not all partners need be listed.

Columns and labels:
[1] = molecular target: T1, PIP82-TurboID (stable S2R+ 99F8 cell line, metallothionein promoter) (Drosophila) (UniProt Q9W3E2); experiment: proximity labelling; TurboID fused within PIP82 in a stable S2R+ 99F8 line, 500 uM copper sulphate 72 h; three replicates of 1x10^8 cells against S2 cells; RIPA lysate, streptavidin bead enrichment, LC-MS/MS; SAINT cutoff >=0.8
T1 sequence: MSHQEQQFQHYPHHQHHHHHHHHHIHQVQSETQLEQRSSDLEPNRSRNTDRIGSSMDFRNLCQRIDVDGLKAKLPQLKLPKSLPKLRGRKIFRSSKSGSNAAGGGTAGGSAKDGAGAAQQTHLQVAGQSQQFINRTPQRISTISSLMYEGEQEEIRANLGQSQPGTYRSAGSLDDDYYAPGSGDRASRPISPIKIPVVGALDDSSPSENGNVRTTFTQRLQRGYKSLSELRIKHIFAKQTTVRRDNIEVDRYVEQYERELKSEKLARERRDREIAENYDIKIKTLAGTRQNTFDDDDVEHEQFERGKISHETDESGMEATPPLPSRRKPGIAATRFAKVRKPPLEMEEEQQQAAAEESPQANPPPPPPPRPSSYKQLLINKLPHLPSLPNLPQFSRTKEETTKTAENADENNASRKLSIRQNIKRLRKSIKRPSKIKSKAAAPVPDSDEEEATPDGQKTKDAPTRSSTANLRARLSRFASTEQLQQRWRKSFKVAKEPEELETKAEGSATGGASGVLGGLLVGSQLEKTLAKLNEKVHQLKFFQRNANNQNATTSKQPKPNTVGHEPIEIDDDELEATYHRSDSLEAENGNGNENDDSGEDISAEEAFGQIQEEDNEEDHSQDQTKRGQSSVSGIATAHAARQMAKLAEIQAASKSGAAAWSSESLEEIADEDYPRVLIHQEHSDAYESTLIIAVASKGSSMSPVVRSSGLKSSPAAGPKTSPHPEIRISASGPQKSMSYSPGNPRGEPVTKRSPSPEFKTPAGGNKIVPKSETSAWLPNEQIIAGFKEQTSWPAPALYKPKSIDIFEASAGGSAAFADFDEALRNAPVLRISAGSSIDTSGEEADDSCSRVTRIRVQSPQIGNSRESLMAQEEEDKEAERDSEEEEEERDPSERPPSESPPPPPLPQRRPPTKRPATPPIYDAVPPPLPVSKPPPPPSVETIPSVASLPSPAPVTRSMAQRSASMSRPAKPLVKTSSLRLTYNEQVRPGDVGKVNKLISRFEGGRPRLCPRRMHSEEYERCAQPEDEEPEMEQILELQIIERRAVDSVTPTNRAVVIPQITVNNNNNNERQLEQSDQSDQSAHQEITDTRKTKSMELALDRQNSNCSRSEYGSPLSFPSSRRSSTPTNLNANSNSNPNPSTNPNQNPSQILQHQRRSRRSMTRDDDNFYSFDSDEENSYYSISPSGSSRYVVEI

[2] = molecular target: T2, PIP82-TurboID (UAS-PIP82-TurboID expressed in photoreceptors with Pph13-GAL4) (Drosophila) (UniProt Q9W3E2); experiment: proximity labelling; PIP82-TurboID expressed in photoreceptors (Pph13-GAL4); lysates of 100 adult heads a replicate against w1118 heads; RIPA lysate, streptavidin bead enrichment, LC-MS/MS; SAINT did not separate specific from non-specific, hits sorted as exclusive or at least threefold enriched
T2 sequence: T1 sequence

binding [1] | binding [2] | Substance
binds |  | Supervillin (endogenous, S2 cells)
binds |  | Auxilin
binds |  | Epsin15
binds |  | Liquid facets
binds |  | Liquid facets related
 | binds | Supervillin (endogenous, adult heads)
 | binds | Bifocal (endogenous, adult heads)
